Reference: article PMC7038622
These are yes or no findings as the source states them, for the method shown. Binding seen in cells or lysates may run through a third protein. Some entries that bind do so weakly or less than the wild type.

Protein sequences, listed by entry. Tags and fused reporters are not part of them.
UniProt P63092: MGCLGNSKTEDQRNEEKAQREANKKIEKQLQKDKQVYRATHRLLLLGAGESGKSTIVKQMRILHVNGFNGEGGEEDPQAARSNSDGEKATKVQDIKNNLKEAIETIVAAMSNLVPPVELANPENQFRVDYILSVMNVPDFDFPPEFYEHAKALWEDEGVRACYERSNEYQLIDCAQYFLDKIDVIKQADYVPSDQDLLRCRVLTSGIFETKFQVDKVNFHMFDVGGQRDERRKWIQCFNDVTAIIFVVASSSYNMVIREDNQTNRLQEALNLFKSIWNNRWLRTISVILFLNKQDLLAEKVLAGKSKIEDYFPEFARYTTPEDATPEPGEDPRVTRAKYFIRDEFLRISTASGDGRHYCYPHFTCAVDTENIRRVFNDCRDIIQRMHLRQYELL
UniProt P40763: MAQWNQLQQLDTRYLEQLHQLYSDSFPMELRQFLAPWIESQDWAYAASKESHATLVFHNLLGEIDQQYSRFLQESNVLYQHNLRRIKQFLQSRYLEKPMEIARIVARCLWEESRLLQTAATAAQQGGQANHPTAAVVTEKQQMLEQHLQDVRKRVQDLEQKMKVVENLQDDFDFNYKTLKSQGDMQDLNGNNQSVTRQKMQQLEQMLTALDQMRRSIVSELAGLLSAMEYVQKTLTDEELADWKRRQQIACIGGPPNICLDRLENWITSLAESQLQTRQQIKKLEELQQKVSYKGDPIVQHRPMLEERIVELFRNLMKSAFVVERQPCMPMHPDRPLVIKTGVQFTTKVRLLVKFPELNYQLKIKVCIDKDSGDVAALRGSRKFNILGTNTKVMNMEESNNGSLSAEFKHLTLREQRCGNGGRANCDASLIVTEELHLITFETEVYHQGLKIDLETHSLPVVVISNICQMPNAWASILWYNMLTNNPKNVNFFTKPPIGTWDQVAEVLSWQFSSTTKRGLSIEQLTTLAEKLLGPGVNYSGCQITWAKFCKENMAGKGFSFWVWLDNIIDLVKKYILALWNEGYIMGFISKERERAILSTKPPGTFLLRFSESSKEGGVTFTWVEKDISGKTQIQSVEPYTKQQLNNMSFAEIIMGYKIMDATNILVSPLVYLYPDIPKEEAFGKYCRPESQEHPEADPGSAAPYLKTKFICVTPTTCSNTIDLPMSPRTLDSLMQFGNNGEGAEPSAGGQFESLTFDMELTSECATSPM

How the values were obtained:
[1] = target: Myc-GNAS (from pCMV-Myc-GNAS), exogenous (UniProt P63092); assay: co-IP; HepG2 cells transfected with pCMV-myc-GNAS and pCMV-flag-STAT3 for 24 h; anti-Flag or anti-Myc at 4 °C overnight, protein A-agarose beads, Western blotting
[2] = target: G-protein alpha-subunit (GNAS), endogenous (human (endogenous in HepG2)) (UniProt P63092); assay: co-IP; endogenous proteins from HepG2 lysate (also GNAS knockout HepG2 cells; with or without LPS 5 μg/ml for the indicated hours); antibody at 4 °C overnight, protein A-agarose beads, Western blotting

| binding [1] | binding [2] | Substance |
| --- | --- | --- |
| binds |  | Flag-STAT3 (from pCMV-Flag-STAT3), exogenous (from UniProt P40763 1-770) |
|  | binds | signal transducer and activator of transcription 3 (STAT3), endogenous (from UniProt P40763 1-770) |
